The list shows a part of the results.
Legend:
Assay in all cases: log2 fold change, soluble protein after heating vs DMSO (PISA); higher = thermal stabilisation; K562 cells, 10 uM, 30 min; active = over 0.2 and 3.5 SD of the protein, either way, in both replicates (recomputed)
[1] = compound: CC1=C(C=C(C=C1)NC(=O)C2=CC(=CC=C2)N(C)C)NC(=O)C3=CC=C(C=C3)O
Method in brief: (§1)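 Aliquots of K562 cells (2×10^6 cells/mL) treated with 10 μM compound for 30 min were heated for 3 min over 48°C-58°C. After pooling and extraction in PBS with 0.5% NP-40 at 4°C, soluble protein from a 21,000xg, 90 min spin was quantified by TMTpro 16plex LC-MS/MS with channel sums equalised. Thermal stability is expressed against control samples, from duplicates, as a log2 fold change.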

Chains of the proteins cited; added tags and fusions are not shown. Lines headed by an entry give the natural chain unless they say otherwise; changes in a name come on top.
UniProt P28062: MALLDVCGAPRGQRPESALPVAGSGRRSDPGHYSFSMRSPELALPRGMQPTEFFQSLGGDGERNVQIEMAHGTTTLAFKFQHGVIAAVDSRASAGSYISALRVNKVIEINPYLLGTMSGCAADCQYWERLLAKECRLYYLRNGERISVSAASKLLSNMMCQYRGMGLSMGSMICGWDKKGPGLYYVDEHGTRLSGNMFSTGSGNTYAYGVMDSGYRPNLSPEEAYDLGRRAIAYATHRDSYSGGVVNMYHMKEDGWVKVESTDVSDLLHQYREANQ
UniProt O14818: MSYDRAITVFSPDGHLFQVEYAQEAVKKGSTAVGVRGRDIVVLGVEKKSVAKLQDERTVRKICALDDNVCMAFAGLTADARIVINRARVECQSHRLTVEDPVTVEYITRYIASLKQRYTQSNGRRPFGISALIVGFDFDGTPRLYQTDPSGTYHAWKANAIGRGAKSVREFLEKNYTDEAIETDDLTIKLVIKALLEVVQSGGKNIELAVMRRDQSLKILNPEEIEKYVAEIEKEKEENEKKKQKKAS
UniProt Q9UKA9: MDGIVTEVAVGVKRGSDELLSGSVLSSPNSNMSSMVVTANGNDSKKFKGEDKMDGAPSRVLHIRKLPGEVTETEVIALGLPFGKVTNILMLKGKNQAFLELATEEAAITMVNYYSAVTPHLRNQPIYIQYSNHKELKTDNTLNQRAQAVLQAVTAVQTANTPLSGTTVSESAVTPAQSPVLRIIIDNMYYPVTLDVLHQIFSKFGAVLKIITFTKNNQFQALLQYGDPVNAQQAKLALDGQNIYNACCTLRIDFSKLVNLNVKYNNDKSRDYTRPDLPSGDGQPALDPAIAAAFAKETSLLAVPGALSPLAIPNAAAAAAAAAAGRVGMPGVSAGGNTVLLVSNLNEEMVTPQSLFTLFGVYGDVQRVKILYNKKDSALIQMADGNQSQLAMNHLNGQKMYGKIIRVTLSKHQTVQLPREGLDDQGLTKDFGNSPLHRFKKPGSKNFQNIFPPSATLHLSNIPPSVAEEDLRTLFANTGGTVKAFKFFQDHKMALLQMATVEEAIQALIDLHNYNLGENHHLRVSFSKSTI
UniProt Q9BRX8: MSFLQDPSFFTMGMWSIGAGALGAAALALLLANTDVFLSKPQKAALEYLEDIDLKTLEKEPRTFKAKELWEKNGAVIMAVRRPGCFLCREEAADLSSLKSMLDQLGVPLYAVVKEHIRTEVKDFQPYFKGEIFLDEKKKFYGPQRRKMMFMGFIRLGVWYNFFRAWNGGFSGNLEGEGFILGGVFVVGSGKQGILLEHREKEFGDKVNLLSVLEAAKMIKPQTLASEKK
UniProt Q8TB72: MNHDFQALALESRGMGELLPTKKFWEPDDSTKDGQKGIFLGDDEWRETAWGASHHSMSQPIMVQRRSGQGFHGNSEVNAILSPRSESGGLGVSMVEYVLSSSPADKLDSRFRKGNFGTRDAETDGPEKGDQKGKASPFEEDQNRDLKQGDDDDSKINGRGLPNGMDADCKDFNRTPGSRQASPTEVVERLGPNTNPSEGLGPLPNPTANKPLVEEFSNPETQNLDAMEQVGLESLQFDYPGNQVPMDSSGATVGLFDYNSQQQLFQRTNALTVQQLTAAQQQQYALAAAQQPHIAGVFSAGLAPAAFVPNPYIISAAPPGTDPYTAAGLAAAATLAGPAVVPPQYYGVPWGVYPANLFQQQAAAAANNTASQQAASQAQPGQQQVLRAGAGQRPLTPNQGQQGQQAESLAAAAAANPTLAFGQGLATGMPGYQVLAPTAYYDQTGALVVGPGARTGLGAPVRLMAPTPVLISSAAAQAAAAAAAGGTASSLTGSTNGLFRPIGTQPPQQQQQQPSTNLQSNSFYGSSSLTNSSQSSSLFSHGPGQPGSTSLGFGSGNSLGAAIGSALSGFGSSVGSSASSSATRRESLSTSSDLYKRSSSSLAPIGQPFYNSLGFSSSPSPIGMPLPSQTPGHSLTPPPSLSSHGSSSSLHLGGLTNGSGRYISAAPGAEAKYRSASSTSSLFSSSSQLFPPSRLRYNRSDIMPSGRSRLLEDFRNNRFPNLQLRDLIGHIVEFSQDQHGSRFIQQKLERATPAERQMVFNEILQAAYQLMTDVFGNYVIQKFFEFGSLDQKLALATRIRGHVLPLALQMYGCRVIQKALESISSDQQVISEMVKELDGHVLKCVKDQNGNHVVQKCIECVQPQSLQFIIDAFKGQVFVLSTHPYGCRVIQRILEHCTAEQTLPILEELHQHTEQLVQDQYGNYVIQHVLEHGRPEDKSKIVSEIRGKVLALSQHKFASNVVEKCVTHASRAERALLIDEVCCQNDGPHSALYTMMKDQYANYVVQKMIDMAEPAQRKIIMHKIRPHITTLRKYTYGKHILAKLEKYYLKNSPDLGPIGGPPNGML
UniProt Q9NYI0: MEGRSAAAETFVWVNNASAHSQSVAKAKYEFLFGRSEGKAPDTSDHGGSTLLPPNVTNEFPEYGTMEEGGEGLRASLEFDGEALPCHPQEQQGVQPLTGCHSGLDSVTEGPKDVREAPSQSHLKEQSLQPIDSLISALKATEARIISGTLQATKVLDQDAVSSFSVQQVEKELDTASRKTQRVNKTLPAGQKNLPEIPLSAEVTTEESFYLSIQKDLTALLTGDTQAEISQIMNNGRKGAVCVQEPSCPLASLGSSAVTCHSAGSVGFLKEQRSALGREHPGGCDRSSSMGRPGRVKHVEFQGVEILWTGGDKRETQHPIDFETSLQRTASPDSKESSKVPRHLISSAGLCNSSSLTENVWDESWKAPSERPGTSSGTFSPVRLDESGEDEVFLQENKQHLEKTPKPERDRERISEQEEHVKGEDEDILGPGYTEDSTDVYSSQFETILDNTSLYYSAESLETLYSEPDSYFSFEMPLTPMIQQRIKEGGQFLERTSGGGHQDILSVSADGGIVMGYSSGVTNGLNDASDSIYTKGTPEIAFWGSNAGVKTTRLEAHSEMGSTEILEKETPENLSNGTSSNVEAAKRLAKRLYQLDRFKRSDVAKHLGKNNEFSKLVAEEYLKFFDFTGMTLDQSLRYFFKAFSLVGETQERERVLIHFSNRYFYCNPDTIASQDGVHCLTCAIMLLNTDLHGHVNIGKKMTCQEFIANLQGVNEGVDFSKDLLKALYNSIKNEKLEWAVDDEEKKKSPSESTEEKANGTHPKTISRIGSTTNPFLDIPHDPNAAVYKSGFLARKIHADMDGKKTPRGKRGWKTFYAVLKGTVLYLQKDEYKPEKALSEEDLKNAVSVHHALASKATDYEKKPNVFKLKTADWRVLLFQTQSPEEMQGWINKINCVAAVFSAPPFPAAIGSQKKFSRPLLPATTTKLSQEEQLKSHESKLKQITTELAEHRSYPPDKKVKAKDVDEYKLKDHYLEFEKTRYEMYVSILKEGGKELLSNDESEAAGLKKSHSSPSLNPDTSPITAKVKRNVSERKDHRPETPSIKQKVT
UniProt Q86Y79: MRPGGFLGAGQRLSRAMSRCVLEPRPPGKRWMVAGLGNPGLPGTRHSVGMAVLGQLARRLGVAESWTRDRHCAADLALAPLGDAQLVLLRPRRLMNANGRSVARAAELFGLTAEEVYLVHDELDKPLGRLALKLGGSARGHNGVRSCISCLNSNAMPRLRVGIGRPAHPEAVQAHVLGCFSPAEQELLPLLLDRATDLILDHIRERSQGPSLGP
UniProt P43378: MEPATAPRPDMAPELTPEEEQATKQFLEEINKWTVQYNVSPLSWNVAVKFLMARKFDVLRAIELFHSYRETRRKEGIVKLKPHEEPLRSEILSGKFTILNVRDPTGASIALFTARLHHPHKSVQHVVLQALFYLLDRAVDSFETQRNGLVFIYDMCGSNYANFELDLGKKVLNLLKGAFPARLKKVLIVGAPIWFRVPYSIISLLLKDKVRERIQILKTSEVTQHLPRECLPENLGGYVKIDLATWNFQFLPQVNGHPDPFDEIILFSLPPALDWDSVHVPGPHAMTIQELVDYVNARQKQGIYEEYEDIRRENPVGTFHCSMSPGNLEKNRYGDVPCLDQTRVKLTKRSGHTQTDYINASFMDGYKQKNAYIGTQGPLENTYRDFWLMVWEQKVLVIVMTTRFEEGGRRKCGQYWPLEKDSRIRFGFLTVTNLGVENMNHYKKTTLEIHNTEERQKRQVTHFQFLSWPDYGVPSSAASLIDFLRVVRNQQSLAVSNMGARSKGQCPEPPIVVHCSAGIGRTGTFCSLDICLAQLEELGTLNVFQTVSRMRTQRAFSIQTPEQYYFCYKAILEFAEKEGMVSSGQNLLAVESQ
UniProt Q03393: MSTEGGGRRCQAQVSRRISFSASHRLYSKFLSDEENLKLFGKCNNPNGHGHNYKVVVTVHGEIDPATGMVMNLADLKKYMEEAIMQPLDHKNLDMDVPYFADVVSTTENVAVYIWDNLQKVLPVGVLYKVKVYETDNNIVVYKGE

[2] = compound: CC1=CC=C(C=C1)SC2=C3C=C(SC3=CN=C2)C(=O)N
Method in brief: as §1

[3] = compound: CC1=NC(=CC=C1)C2=C(N=C(N2)C(C)(C)C)C3=CC4=NC=CN=C4C=C3
Method in brief: as §1

[4] = compound: CCCS(=O)(=O)Nc1ccc(F)c(C(=O)c2c[nH]c3ncc(Cl)cc23)c1F
Method in brief: as §1

[5] = compound: CCCc1cc(C)[nH]c(=O)c1CNC(=O)c1cc(-c2ccnc(N3CCN(C)CC3)c2)cc2c1cnn2C(C)C
Method in brief: as §1

[6] = compound: CC[C@@H]1C(=O)N(C)c2cnc(Nc3ccc(C(=O)NC4CCN(C)CC4)cc3OC)nc2N1C1CCCC1
Method in brief: as §1

volasertib = compound: CC[C@@H]1C(=O)N(C)c2cnc(Nc3ccc(C(=O)N[C@H]4CC[C@H](N5CCN(CC6CC6)CC5)CC4)cc3OC)nc2N1C(C)C [volasertib]
Method in brief: as §1

[7] = compound: CC[C@H](C)N1C=C(C2=C(C=C(C=C21)C3=CN=C(C=C3)N4CCNCC4)C(=O)NCC5=C(C=C(NC5=O)C)C)C
Method in brief: as §1

[8] = compound: CCn1cc(-c2ccnc3[nH]c(-c4cccc(CN(C)C)c4)cc23)c(-c2ccc(NC(=O)N(C)C)cc2)n1
Method in brief: as §1

[9] = compound: CN1C2=C(C3=C1C(=O)N(N=C3)CC4=CC(=CC=C4)N)SC(=C2)S(=O)C
Method in brief: as §1

[10] = compound: CN1CCC(CNc2ccc3ncc(-c4cccc(OC(F)(F)F)c4)n3n2)CC1
Method in brief: as §1

givinostat = compound: CCN(CC)Cc1ccc2cc(COC(=O)Nc3ccc(C(=O)NO)cc3)ccc2c1 [givinostat]
Method in brief: as §1

[11] = compound: CCn1c(C(=O)N(C2CC2)C2CC2)cc2c3c(ncn3C)c(Nc3cc(C)n(C)n3)nc21
Method in brief: as §1

[12] = compound: CC1=C(C=C(C=C1)NC(=O)C2=CC(=CC=C2)C(C)(C)C#N)NC3=CC4=C(C=C3)N=CN(C4=O)C
Method in brief: as §1

Nexturastat A = compound: CCCCN(Cc1ccc(C(=O)NO)cc1)C(=O)Nc1ccccc1 [Nexturastat A]
Method in brief: as §1

vemurafenib = compound: CCCS(=O)(=O)Nc1ccc(F)c(C(=O)c2c[nH]c3ncc(-c4ccc(Cl)cc4)cc23)c1F [vemurafenib]
Method in brief: as §1

barasertib = compound: CCN(CCCOc1ccc2c(Nc3cc(CC(=O)Nc4cccc(F)c4)[nH]n3)ncnc2c1)CCOP(=O)(O)O [barasertib]
Method in brief: as §1

epoxomicin = compound: CC[C@H](C)[C@@H](C(=O)N[C@@H]([C@@H](C)O)C(=O)N[C@@H](CC(C)C)C(=O)[C@]1(CO1)C)NC(=O)[C@H]([C@@H](C)CC)N(C)C(=O)C [epoxomicin]
Method in brief: as §1

[13] = compound: CN(C)CC(=O)Nc1ccc2[nH]c(=O)c3ccccc3c2c1
Method in brief: as §1

rosiglitazone = compound: CN(CCOC1=CC=C(C=C1)C[C@H]2C(=O)NC(=O)S2)C3=CC=CC=N3 (racemic) [rosiglitazone]
Method in brief: as §1

Measured: log2 fold change

PSIP1 (UniProt V9GYT7)
inactive: [1] -0.023 | [2] -0.06 | [3] 0.051 | [4] -0.108 | [5] 0.265 | [6] 0.196 | volasertib 0.01 | [7] -0.195 | [8] 0.128 | [9] 0.237 | [10] -0.06

PSMB8 (UniProt P28062)
inactive: [3] 0.051 | givinostat 0.049 | [7] -0.001 | [11] 0.107 | [8] -0.061 | [10] 0.02

PSMA7 isoform 2 (UniProt O14818)
inactive: [12] -0.4 | [2] -0.462 | [3] -0.145 | Nexturastat A 0.135 | vemurafenib -0.401 | [4] -0.596 | [5] -0.186 | givinostat -0.014 | barasertib 0.042 | [6] 0.16 | volasertib 0.028 | [7] -0.101 | epoxomicin -0.249 | [11] -0.079 | [13] -0.346 | rosiglitazone 0.002

PTBP2 isoform 3 (UniProt Q9UKA9)
inactive: [12] 0.143 | [2] -0.083 | [3] -0.111 | [4] -0.147 | givinostat 0.133 | volasertib -0.112 | [11] -0.071 | [8] -0.217 | [10] 0.081

PRXL2A (UniProt Q9BRX8)
inactive: [12] 0.012 | [2] 0.012 | [3] 0.006 | Nexturastat A -0.045 | vemurafenib 0.167 | [4] -0.047 | [5] 0.207 | givinostat -0.108 | barasertib 0.198 | [6] 0.151 | volasertib -0.084 | epoxomicin 0.099 | [11] -0.037 | [8] 0.143 | [13] 0.332 | rosiglitazone 0.092 | [9] 0.066 | [10] 0.261

PSMD4 (UniProt Q5VWC4)
inactive: [12] -0.016 | [2] -0.096 | [3] -0.013 | Nexturastat A 0.095 | vemurafenib -0.031 | [4] -0.005 | [5] 0.005 | barasertib -0.046 | [6] -0.029 | volasertib 0.025 | [7] 0.015 | epoxomicin -0.181 | [8] 0.014 | [13] -0.038 | rosiglitazone -0.012 | [10] 0.127

Reprinted from the listing (two entries):
PRXL2A (UniProt Q9BRX8)
inactive: [12] 0.012 | [2] 0.012 | [3] 0.006 | Nexturastat A -0.045 | vemurafenib 0.167 | [4] -0.047 | [5] 0.207 | givinostat -0.108 | barasertib 0.198 | [6] 0.151 | volasertib -0.084 | epoxomicin 0.099 | [11] -0.037 | [8] 0.143 | [13] 0.332 | rosiglitazone 0.092 | [9] 0.066 | [10] 0.261

PSMD4 (UniProt Q5VWC4)
inactive: [12] -0.016 | [2] -0.096 | [3] -0.013 | Nexturastat A 0.095 | vemurafenib -0.031 | [4] -0.005 | [5] 0.005 | barasertib -0.046 | [6] -0.029 | volasertib 0.025 | [7] 0.015 | epoxomicin -0.181 | [8] 0.014 | [13] -0.038 | rosiglitazone -0.012 | [10] 0.127

Next part:

PYCR1 (UniProt J3QKT4)
inactive: Nexturastat A 0.39 | vemurafenib 0.006 | givinostat 0.215 | barasertib 0.061 | [6] 0.266 | epoxomicin 0.193 | [11] -0.104 | [8] -0.052 | [13] -0.022 | rosiglitazone -0.166 | [10] -0.089

PSMA3 (UniProt G3V4X5)
inactive: [1] -0.046 | [2] -0.117 | [3] 0.184 | vemurafenib -0.012 | [4] 0.013 | barasertib 0.103 | volasertib 0.139 | [13] 0.084

PSMD8 (UniProt K7ERW6)
inactive: [3] -0.283 | vemurafenib -0.236 | [13] 0.027

PUM2 isoform 3 (UniProt Q8TB72)
inactive: [9] 0.239

PSD3 (UniProt Q9NYI0)
inactive: [1] -0.059 | [2] -0.01 | [3] 0.023 | vemurafenib -0.019 | [4] 0.049 | [5] 0.025 | [6] -0.019 | volasertib -0.108 | [7] 0.061 | [13] 0.004

PTRH1 (UniProt Q86Y79)
inactive: [1] -0.017 | [3] 0.088 | [8] -0.265 | [9] 0.124 | [10] -0.181

PTPN9 (UniProt P43378)
inactive: [5] 0.265 | [8] -0.075 | [9] 0.327 | [10] -0.029

PSMC1 (UniProt G3V4X1)
inactive: [2] -0.384 | [4] -0.154 | givinostat 0.095 | volasertib 0.141 | [7] -0.01 | [8] 0.108 | [10] -0.282

PTS (UniProt Q03393)
inactive: [2] 0.065 | [3] -0.04 | Nexturastat A -0.216 | vemurafenib 0.023 | [4] 0.035 | [5] -0.07 | givinostat -0.035 | barasertib -0.001 | [6] -0.027 | volasertib 0.098 | [7] -0.025 | epoxomicin -0.041 | [11] 0.044 | [8] 0.043 | [13] 0.033 | rosiglitazone -0.055 | [9] 0.076 | [10] -0.075
